# Assay results reported in the supplement of paper PMC8728848.
# The list shows a part of the results.
# How the values were obtained:
# Test in all cases: glycan array binding signal (z-score within array); higher = stronger binding
# Conditions in all cases: glycan notation: IUPAC condensed, linker removed
# [1] = biological target: Gal(b1-4)GlcNAc(b1-6)GalNAc
# Method in brief: (§1)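 Glycan array data came from 3228 arrays in the Consortium for Functional Glycomics database, and only arrays with an available protein sequence were kept. Glycan names were put into IUPAC-condensed notation, and columns mapping to the same glycan were averaged. The binding signal is a within-array Z-score, averaged across arrays of one protein sequence run at different concentrations or buffers and across linkers. A negative Z-score can be read as non-binding.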
# [2] = biological target: Gal(b1-4)GlcNAc(b1-6)[Gal(b1-3)]GalNAc
# Method in brief: as §1
# [3] = biological target: Gal(b1-4)GlcNAc(b1-6)[Gal(b1-3)]GlcNAc
# Method in brief: as §1
# Gal3S(b1-3)GalNAc = biological target: Gal3S(b1-3)GalNAc
# Method in brief: as §1
# Gal3S(b1-3)GlcNAc = biological target: Gal3S(b1-3)GlcNAc
# Method in brief: as §1
# [4] = biological target: Gal3S(b1-3)[Fuc(a1-4)]GlcNAc
# Method in brief: as §1
# Gal3S(b1-4)Glc = biological target: Gal3S(b1-4)Glc
# Method in brief: as §1
# Gal3S(b1-4)Glc6S = biological target: Gal3S(b1-4)Glc6S
# Method in brief: as §1
# Gal3S(b1-4)GlcNAc = biological target: Gal3S(b1-4)GlcNAc
# Method in brief: as §1
# Gal3S(b1-4)GlcNAc6S = biological target: Gal3S(b1-4)GlcNAc6S
# Method in brief: as §1
# Gal3S6S(b1-4)GlcNAc = biological target: Gal3S6S(b1-4)GlcNAc
# Method in brief: as §1
# Gal3S6S(b1-4)GlcNAc6S = biological target: Gal3S6S(b1-4)GlcNAc6S
# Method in brief: as §1
# Gal4S(b1-4)GlcNAc = biological target: Gal4S(b1-4)GlcNAc
# Method in brief: as §1
# Gal4S6S(b1-4)GlcNAc = biological target: Gal4S6S(b1-4)GlcNAc
# Method in brief: as §1
# Gal6S(b1-4)Glc = biological target: Gal6S(b1-4)Glc
# Method in brief: as §1
# Gal6S(b1-4)Glc6S = biological target: Gal6S(b1-4)Glc6S
# Method in brief: as §1
# Gal6S(b1-4)GlcNAc = biological target: Gal6S(b1-4)GlcNAc
# Method in brief: as §1
# GalNAc(a1-3)Gal = biological target: GalNAc(a1-3)Gal
# Method in brief: as §1
# GalNAc(a1-3)GalNAc = biological target: GalNAc(a1-3)GalNAc
# Method in brief: as §1
# [5] = biological target: GalNAc(b1-3)Gal(a1-4)Gal(b1-4)GlcNAc
# Method in brief: as §1
# GalNAc(b1-4)GlcNAc = biological target: GalNAc(b1-4)GlcNAc
# Method in brief: as §1
# Glc(a1-4)Glc = biological target: Glc(a1-4)Glc
# Method in brief: as §1
# Glc(a1-6)Glc(a1-6)Glc = biological target: Glc(a1-6)Glc(a1-6)Glc
# Method in brief: as §1
# Glc(b1-4)Glc = biological target: Glc(b1-4)Glc
# Method in brief: as §1
# Glc(b1-6)Glc = biological target: Glc(b1-6)Glc
# Method in brief: as §1
# GlcA(b1-3)Gal = biological target: GlcA(b1-3)Gal
# Method in brief: as §1
# GlcA(b1-6)Gal = biological target: GlcA(b1-6)Gal
# Method in brief: as §1
# [6] = biological target: GlcNAc(a1-3)Gal(b1-4)GlcNAc
# Method in brief: as §1
# [7] = biological target: GlcNAc(a1-6)Gal(b1-4)GlcNAc
# Method in brief: as §1
# [8] = biological target: GlcNAc(b1-2)Gal(b1-3)GlcNAc
# Method in brief: as §1
# [9] = biological target: GlcNAc(b1-2)Man(a1-3)[GlcNAc(b1-2)Man(a1-6)]Man(b1-4)GlcNAc(b1-4)GlcNAc
# Method in brief: as §1
# GlcNAc(b1-3)Gal = biological target: GlcNAc(b1-3)Gal
# Method in brief: as §1
# [10] = biological target: GlcNAc(b1-3)Gal(b1-3)GalNAc
# Method in brief: as §1
# GlcNAc(b1-3)Gal(b1-4)Glc = biological target: GlcNAc(b1-3)Gal(b1-4)Glc
# Method in brief: as §1
# [11] = biological target: GlcNAc(b1-3)Gal(b1-4)GlcNAc
# Method in brief: as §1
# [12] = biological target: GlcNAc(b1-3)Gal(b1-4)GlcNAc(b1-3)Gal(b1-4)GlcNAc
# Method in brief: as §1
# GlcNAc(b1-3)GalNAc = biological target: GlcNAc(b1-3)GalNAc
# Method in brief: as §1
# [13] = biological target: GlcNAc(b1-3)[GlcNAc(b1-4)][GlcNAc(b1-6)]GlcNAc
# Method in brief: as §1
# [14] = biological target: GlcNAc(b1-3)[GlcNAc(b1-6)]Gal(b1-4)GlcNAc
# Method in brief: as §1
# [15] = biological target: GlcNAc(b1-3)[GlcNAc(b1-6)]GlcNAc
# Method in brief: as §1
# [16] = biological target: GlcNAc(b1-4)Gal(b1-4)GlcNAc
# Method in brief: as §1
# [17] = biological target: GlcNAc(b1-4)GlcNAc(b1-4)GlcNAc
# Method in brief: as §1
# [18] = biological target: GlcNAc(b1-4)GlcNAc(b1-4)GlcNAc(b1-4)GlcNAc(b1-4)GlcNAc
# Method in brief: as §1
# [19] = biological target: GlcNAc(b1-4)GlcNAc(b1-4)GlcNAc(b1-4)GlcNAc(b1-4)GlcNAc(b1-4)GlcNAc
# Method in brief: as §1
# [20] = biological target: GlcNAc(b1-4)[GlcNAc(b1-6)]GalNAc
# Method in brief: as §1
binder,measurement,setting,value
"C-Reactive Protein (Homo sapiens), P02741 (protein) MEKLLCFLVLTSLSHAFGQTDMSRKAFVFPKESDTSYVSLKAPLTKPLKAFTVCLHFYTELSSTRGYSIFSYATKRQDNEILIFWSKDIGYSFTVGGSEILFEVPEVTVAPVHICTSWESASGIVEFWVDGKPRVRKSLKKGYTVGAEASIILGQEQDSFGGNFEGSQSLVGDIGNVNMWDFVLSPDEINTIYLGGPFSPNVLNWRALKYEVQGEVFTKPQLWP",glycan array binding signal (z-score),[1],-0.701
same,glycan array binding signal (z-score),[2],0.321
same,glycan array binding signal (z-score),[3],-0.675
same,glycan array binding signal (z-score),Gal3S(b1-3)GalNAc,0.199
same,glycan array binding signal (z-score),Gal3S(b1-3)GlcNAc,0.084
same,glycan array binding signal (z-score),[4],0.239
same,glycan array binding signal (z-score),Gal3S(b1-4)Glc,-0.319
same,glycan array binding signal (z-score),Gal3S(b1-4)Glc6S,0.437
same,glycan array binding signal (z-score),Gal3S(b1-4)GlcNAc,1.44
same,glycan array binding signal (z-score),Gal3S(b1-4)GlcNAc6S,1.48
same,glycan array binding signal (z-score),Gal3S6S(b1-4)GlcNAc,1.47
same,glycan array binding signal (z-score),Gal3S6S(b1-4)GlcNAc6S,-0.142
same,glycan array binding signal (z-score),Gal4S(b1-4)GlcNAc,-0.497
same,glycan array binding signal (z-score),Gal4S6S(b1-4)GlcNAc,2.24
same,glycan array binding signal (z-score),Gal6S(b1-4)Glc,0.477
same,glycan array binding signal (z-score),Gal6S(b1-4)Glc6S,-0.037
same,glycan array binding signal (z-score),Gal6S(b1-4)GlcNAc,0.062
same,glycan array binding signal (z-score),GalNAc(a1-3)Gal,-0.545
same,glycan array binding signal (z-score),GalNAc(a1-3)GalNAc,-0.666
same,glycan array binding signal (z-score),[5],-0.449
same,glycan array binding signal (z-score),GalNAc(b1-4)GlcNAc,-0.559
same,glycan array binding signal (z-score),Glc(a1-4)Glc,-0.315
same,glycan array binding signal (z-score),Glc(a1-6)Glc(a1-6)Glc,-0.607
same,glycan array binding signal (z-score),Glc(b1-4)Glc,-0.549
same,glycan array binding signal (z-score),Glc(b1-6)Glc,-0.117
same,glycan array binding signal (z-score),GlcA(b1-3)Gal,0.365
same,glycan array binding signal (z-score),GlcA(b1-6)Gal,-0.49
same,glycan array binding signal (z-score),[6],-0.627
same,glycan array binding signal (z-score),[7],-0.665
same,glycan array binding signal (z-score),[8],-0.421
same,glycan array binding signal (z-score),[9],-0.414
same,glycan array binding signal (z-score),GlcNAc(b1-3)Gal,-0.634
same,glycan array binding signal (z-score),[10],-0.505
same,glycan array binding signal (z-score),GlcNAc(b1-3)Gal(b1-4)Glc,-0.384
same,glycan array binding signal (z-score),[11],-0.596
same,glycan array binding signal (z-score),[12],-0.759
same,glycan array binding signal (z-score),GlcNAc(b1-3)GalNAc,0.115
same,glycan array binding signal (z-score),[13],0.055
same,glycan array binding signal (z-score),[14],-0.5
same,glycan array binding signal (z-score),[15],-0.233
same,glycan array binding signal (z-score),[16],-0.585
same,glycan array binding signal (z-score),[17],1.94
same,glycan array binding signal (z-score),[18],-0.529
same,glycan array binding signal (z-score),[19],-0.081
same,glycan array binding signal (z-score),[20],-0.377

# At a glance, some entries already given.
binder,measurement,setting,value
"C-Reactive Protein (Homo sapiens), P02741 (protein) MEKLLCFLVLTSLSHAFGQTDMSRKAFVFPKESDTSYVSLKAPLTKPLKAFTVCLHFYTELSSTRGYSIFSYATKRQDNEILIFWSKDIGYSFTVGGSEILFEVPEVTVAPVHICTSWESASGIVEFWVDGKPRVRKSLKKGYTVGAEASIILGQEQDSFGGNFEGSQSLVGDIGNVNMWDFVLSPDEINTIYLGGPFSPNVLNWRALKYEVQGEVFTKPQLWP",glycan array binding signal (z-score),[1],-0.701
same,glycan array binding signal (z-score),[2],0.321
same,glycan array binding signal (z-score),[3],-0.675
